Results are given in words; binding and its absence hold for the method and conditions named. Binding seen in cells or lysates may run through a third protein. Here binding means that the protein was enriched with, or labelled near, the bait; the list need not be complete. Where a sequence is shown, tags or fusion partners need not be part of it.
Legend:
[1] = target: T1, 3X FLAG tagged wild-type mouse Gstt1 (doxycycline-inducible overexpression) (mouse) (UniProt Q64471); experiment: affinity purification with mass spectrometry
T1 sequence: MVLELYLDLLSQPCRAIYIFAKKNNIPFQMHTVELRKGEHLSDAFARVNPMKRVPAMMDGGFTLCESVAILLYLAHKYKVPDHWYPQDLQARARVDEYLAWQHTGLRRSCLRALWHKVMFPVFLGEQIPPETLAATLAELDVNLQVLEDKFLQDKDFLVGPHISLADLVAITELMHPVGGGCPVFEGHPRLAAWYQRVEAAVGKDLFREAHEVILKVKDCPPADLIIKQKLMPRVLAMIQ

The chains behind the UniProt entries cited, without tags or fusion partners. Residues count along the entry.
UniProt P11276, residues 33-2477: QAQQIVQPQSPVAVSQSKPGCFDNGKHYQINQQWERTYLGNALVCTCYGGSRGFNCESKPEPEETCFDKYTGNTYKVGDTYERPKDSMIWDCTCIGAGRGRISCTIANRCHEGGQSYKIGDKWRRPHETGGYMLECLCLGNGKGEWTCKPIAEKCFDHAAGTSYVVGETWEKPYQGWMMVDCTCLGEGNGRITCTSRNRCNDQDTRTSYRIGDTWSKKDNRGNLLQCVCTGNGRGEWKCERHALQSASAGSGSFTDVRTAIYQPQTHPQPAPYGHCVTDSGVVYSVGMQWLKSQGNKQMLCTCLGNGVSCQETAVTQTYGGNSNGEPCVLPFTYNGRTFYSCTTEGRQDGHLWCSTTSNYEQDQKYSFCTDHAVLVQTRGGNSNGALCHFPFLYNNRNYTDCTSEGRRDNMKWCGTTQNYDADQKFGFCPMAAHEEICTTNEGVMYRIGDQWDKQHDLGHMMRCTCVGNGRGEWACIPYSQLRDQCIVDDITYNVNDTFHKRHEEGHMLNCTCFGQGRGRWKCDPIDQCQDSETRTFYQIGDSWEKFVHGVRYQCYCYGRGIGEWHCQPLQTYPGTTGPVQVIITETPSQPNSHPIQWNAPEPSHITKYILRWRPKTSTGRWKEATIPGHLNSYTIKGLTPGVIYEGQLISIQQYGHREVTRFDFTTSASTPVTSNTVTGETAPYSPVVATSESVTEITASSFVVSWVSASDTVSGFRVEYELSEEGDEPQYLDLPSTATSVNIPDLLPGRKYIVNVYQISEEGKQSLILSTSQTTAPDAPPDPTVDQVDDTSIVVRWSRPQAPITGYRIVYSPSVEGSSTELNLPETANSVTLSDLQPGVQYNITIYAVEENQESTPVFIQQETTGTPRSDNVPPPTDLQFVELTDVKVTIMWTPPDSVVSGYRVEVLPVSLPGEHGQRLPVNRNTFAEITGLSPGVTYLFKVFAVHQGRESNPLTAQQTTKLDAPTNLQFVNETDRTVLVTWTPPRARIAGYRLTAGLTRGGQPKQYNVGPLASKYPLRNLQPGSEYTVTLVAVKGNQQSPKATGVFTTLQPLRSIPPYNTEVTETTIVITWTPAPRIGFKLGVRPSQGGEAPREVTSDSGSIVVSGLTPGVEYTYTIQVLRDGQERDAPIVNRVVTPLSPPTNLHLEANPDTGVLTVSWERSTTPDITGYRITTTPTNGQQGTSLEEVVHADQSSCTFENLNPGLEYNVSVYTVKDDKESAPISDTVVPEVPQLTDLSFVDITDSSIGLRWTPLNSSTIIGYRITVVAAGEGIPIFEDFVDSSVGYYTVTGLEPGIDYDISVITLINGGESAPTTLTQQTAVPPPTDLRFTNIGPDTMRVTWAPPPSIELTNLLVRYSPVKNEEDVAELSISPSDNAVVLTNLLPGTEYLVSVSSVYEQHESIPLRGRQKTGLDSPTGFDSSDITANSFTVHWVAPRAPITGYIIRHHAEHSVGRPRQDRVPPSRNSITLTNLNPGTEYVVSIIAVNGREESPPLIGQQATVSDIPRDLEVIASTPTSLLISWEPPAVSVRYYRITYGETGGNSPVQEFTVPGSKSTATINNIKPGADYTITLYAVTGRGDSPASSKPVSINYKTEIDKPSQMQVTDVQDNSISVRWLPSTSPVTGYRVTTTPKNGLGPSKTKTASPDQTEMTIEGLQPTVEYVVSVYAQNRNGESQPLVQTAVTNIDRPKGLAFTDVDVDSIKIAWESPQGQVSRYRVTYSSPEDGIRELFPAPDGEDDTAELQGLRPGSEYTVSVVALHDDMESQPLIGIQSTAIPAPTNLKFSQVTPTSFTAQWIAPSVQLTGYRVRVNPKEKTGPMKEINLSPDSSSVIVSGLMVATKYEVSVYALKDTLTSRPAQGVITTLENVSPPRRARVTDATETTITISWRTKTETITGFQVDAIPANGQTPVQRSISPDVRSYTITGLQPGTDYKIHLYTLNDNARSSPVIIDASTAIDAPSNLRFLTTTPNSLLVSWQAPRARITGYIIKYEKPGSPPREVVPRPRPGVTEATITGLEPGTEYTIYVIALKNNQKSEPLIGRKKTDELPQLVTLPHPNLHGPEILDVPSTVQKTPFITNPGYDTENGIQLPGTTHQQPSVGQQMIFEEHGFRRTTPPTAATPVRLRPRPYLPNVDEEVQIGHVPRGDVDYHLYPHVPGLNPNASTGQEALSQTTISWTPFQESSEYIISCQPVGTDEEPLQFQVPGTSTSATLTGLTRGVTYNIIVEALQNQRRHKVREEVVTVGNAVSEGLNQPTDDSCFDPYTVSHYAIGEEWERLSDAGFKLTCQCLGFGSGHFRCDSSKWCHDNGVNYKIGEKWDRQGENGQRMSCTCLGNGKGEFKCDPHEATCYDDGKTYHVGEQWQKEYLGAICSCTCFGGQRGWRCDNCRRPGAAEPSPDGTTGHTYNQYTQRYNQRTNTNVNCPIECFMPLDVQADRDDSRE
UniProt Q80X90: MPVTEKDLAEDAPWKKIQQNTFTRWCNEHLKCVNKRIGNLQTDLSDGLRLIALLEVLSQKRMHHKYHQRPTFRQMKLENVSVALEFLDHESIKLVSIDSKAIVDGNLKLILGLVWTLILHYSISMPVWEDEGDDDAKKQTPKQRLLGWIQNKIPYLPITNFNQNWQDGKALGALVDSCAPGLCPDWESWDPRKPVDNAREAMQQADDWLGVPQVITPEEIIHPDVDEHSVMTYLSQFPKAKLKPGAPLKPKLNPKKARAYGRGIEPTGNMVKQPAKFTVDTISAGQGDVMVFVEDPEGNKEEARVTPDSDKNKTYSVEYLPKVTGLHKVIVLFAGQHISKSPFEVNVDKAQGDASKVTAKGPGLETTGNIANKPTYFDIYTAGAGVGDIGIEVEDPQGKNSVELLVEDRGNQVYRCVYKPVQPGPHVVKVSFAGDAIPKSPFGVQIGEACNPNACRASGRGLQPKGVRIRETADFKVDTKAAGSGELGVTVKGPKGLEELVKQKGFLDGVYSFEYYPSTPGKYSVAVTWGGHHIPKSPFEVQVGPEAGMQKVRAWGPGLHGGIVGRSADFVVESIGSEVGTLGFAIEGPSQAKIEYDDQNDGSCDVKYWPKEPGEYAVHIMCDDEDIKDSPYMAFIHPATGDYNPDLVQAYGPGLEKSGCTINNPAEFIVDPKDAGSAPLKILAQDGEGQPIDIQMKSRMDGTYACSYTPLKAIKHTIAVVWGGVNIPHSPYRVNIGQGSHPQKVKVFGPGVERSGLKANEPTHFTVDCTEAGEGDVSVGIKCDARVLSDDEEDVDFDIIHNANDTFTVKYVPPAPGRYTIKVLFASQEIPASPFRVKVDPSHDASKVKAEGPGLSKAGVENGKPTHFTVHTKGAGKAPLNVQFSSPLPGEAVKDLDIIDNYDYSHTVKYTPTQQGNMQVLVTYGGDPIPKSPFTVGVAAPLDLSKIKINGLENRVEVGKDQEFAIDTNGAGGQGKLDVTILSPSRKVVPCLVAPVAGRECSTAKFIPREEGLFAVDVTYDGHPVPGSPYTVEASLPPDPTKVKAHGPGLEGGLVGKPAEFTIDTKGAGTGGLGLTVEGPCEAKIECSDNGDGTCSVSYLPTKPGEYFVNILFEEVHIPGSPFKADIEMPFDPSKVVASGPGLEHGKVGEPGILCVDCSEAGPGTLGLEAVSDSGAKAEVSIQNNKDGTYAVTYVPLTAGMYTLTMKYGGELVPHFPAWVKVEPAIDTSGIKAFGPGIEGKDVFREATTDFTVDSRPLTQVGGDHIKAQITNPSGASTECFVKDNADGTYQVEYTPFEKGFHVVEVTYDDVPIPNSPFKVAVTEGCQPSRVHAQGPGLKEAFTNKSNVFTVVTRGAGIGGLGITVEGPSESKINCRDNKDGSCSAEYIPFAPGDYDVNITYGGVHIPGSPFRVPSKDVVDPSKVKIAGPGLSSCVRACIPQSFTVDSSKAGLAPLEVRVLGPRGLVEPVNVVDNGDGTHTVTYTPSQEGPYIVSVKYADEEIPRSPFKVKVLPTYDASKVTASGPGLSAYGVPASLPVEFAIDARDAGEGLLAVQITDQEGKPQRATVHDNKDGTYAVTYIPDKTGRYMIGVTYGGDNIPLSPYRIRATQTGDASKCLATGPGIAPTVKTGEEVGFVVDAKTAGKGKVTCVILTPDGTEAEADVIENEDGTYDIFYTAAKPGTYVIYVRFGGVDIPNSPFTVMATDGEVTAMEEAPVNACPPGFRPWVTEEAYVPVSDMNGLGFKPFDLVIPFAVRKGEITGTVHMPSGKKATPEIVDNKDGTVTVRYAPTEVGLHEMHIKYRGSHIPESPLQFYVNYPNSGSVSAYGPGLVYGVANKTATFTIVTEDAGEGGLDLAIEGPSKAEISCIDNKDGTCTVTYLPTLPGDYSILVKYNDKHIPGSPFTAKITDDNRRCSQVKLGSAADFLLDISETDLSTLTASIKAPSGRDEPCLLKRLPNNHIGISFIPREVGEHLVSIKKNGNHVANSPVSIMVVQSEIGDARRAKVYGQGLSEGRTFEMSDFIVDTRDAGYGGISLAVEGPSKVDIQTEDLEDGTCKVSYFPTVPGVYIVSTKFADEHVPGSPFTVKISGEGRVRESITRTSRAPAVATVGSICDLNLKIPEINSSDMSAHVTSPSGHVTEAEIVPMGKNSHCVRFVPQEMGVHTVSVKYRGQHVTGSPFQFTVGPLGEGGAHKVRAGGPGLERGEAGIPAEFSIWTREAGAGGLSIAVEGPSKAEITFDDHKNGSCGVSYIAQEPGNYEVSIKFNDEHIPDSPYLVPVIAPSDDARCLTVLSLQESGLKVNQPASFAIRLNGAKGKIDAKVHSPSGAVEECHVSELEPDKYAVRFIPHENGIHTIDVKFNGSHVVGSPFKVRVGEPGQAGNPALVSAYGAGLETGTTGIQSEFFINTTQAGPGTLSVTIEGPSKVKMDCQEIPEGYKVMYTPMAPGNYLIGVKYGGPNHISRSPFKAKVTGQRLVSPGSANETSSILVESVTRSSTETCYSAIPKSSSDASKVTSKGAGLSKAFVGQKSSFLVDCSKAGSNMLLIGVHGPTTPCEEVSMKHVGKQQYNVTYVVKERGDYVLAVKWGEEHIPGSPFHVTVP

[2] = target: T2, Glutathione S-transferase theta 1 (Gstt1) (mouse (endogenous in PDAC-derived metastatic cell lines)) (UniProt Q64471); experiment: affinity purification with mass spectrometry
T2 sequence: T1 sequence

## Fibronectin (from UniProt P11276 33-2477)
[1]
  binding: binds
[2]
  binding: binds

## Filamin B (from UniProt Q80X90 1-2602)
[2]
  binding: binds

Source: article doi:10.1101/2022.09.10.507413
